{
  "source": "paper PMC6191125",
  "about": "“Peptidoglycan potentiates the membrane disrupting effect of the carboxyamidated form of DMS-DA6, a Gram-positive selective antimicrobial peptide isolated from Pachymedusa dacnicolor skin” (PLoS ONE, 2018)",
  "tested_on": "DMPG LUVs + PGN",
  "assay": "Differential scanning calorimetry with DMPG LUVs + peptidoglycan",
  "design": "species or system Staphylococcus aureus",
  "settings": "DSC, DMPG LUVs + 0.02% (w/w) PGN",
  "note": "Residues, ends and D or L forms follow the SMILES beside them.",
  "data": [
    {"smiles": "CC[C@H](C)[C@H](NC(=O)CNC(=O)[C@H](Cc1c[nH]c2ccccc12)NC(=O)[C@@H](NC(=O)CN)C(C)C)C(=O)N[C@@H](C)C(=O)N[C@@H](CCCCN)C(=O)N[C@H](C(=O)N[C@@H](C)C(=O)NCC(=O)N[C@@H](CCCCN)C(=O)N[C@H](C(=O)N[C@@H](CC(C)C)C(=O)NCC(=O)N[C@@H](CC(N)=O)C(=O)N[C@H](C(=O)N[C@@H](CC(C)C)C(=O)N1CCC[C@H]1C(=O)N[C@@H](Cc1c[nH]cn1)C(=O)N[C@H](C(=O)N[C@@H](Cc1ccccc1)C(=O)N[C@@H](CO)C(=O)N[C@@H](CO)C(=O)N[C@@H](CC(N)=O)C(=O)N[C@@H](CCC(N)=O)C(=O)N[C@@H](CO)C(N)=O)C(C)C)[C@@H](C)CC)C(C)C)[C@@H](C)CC", "note": "[DMS-DA6-NH2] (H-GVWGIAKIAGKVLGNILPHVFSSNQS-NH2)", "values": [
      {"measurement": "ΔHm1", "setting": "peptide to lipid ratio 1/25", "result": "1.58 ± 0.096", "unit": "kcal/mol"},
      {"measurement": "ΔHm2", "setting": "peptide to lipid ratio 1/25", "result": "0.884 ± 0.096", "unit": "kcal/mol"},
      {"measurement": "ΔHm1", "setting": "peptide to lipid ratio 1/50", "result": "2.53 ± 0.14", "unit": "kcal/mol"},
      {"measurement": "ΔHm2", "setting": "peptide to lipid ratio 1/50", "result": "1 ± 0.12", "unit": "kcal/mol"},
      {"measurement": "ΔHm1", "setting": "peptide to lipid ratio 1/100", "result": "2.7 ± 0.22", "unit": "kcal/mol"},
      {"measurement": "ΔHm2", "setting": "peptide to lipid ratio 1/100", "result": "1.72 ± 0.12", "unit": "kcal/mol"}
    ]}
  ]
}
